{
  "source": "patent US6017399A",
  "about": "“Method for controlling and removing solid deposits from a surface of a component of a steam generating system” (priority 1998, dated 2000)",
  "key": {"[1]": {"settings": "for aluminum anion concentration / aluminum cation concentration / aluminum total concentration: Day 22"}, "[2]": {"settings": "words"}, "[3]": {"settings": "during the demonstration of dimethylamine"}},
  "note": "Read-outs that look alike come from different tables or passages of the source.",
  "data": [
    {"smiles": "CNC", "note": "[Dimethylamine]", "values": [
      {"measurement": "aluminum transport, feedwater and steam generator blowdown", "setting": "[1]; after dimethylamine treatment, words", "value": "reduction of aluminum below detection limits"},
      {"measurement": "aluminum anion concentration", "setting": "[1]; feedwater", "value": 1.0, "unit": "parts per billion"},
      {"measurement": "aluminum cation concentration", "setting": "[1]; feedwater", "value": 0.49, "unit": "parts per billion"},
      {"measurement": "aluminum total concentration", "setting": "[1]; feedwater", "value": 1.49, "unit": "parts per billion"},
      {"measurement": "aluminum anion concentration", "setting": "[1]; steam generator blowdown", "value": 1.44, "unit": "parts per billion"},
      {"measurement": "aluminum cation concentration", "setting": "[1]; steam generator blowdown", "value": 0.92, "unit": "parts per billion"},
      {"measurement": "aluminum total concentration", "setting": "[1]; steam generator blowdown", "value": 2.36, "unit": "parts per billion"},
      {"measurement": "silica, boiler drum sample", "setting": "[2]; FIG. 8", "value": "prompt reduction of electronegative silica"},
      {"measurement": "soluble calcium, boiler drum sample", "setting": "[2]; FIG. 9", "value": "dramatically reduced"},
      {"measurement": "sodium and potassium elution, boiler drum sample", "setting": "[2]; FIGS. 10 and 11", "value": "eluted by dimethylamine such that the soluble fraction was increased"},
      {"measurement": "condensate polisher run time", "setting": "[3]", "value": "extended from thirty to sixty days"}
    ]}
  ]
}
